Measurements reported in PubChem BioAssay AID602196 (INSERM, 2012).
The deposit covers about 23,000 reagents; this is a part drawn at random. Of all reagents, 455 (2%) are marked active. 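Active includes both protection and sensitisation; some change values fall well beyond the stated -50 to +50 range.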 A number with no mark means an inactive call. The numbers tell different reagents against one gene apart. Further read-outs or replicates are left out here. Not given: the amount of reagent.

Purpose: 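Genes whose knock-down alters cisplatin killing of lung cancer cells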
System: human A549 lung cancer cells
Reagent: siRNA pair against human genes
Time to read-out: 48 h transfection before cisplatin; time from cisplatin to read-out not stated
Conditions: cisplatin at a dose killing half of control-siRNA cells; exact dose and duration not given
Measured: 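Cisplatin cell death as a shift from the 50% death seen with control siRNA; siRNAs toxic or growth-blocking alone scored 0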
Scale: two-siRNA summed score (-2 to +2): higher = both siRNAs protect from cisplatin killing; -2 means both sensitise; mean protection from cisplatin (shift in death): higher = protection from cisplatin killing
Rule for the call: 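Each siRNA scores 0 if harmful alone by LDH or WST-1, otherwise +1 if it reduces and -1 if it increases cisplatin killing; a gene is active when both siRNAs agree (sum +2 or -2)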
Calls: active = both siRNAs shift cisplatin killing the same way; inactive = no consistent shift, or siRNA harmful alone

no.	gene symbol	reagent no.	two-siRNA summed score (-2 to +2)	mean protection from cisplatin (shift in death) (%)
1	CALCOCO1 (calcium binding and coiled-coil domain 1)	1	1	11.8
2	EPHB3 (EPH receptor B3)	1	1	5.8
3	TOGARAM1 (TOG array regulator of axonemal microtubules 1)	1	0	0.7
4	IL19 (interleukin 19)	1	0	-0.6
5	LOC441549	1	0	11.2
6	GSTT4 (glutathione S-transferase theta 4)	1	1	1.2
7	DNAH12 (dynein axonemal heavy chain 12)	1	0	9.9
8	DNAH12 (dynein axonemal heavy chain 12)	2	0	23
9	RPS25 (ribosomal protein S25)	1	0	39.1
10	VGF (VGF nerve growth factor inducible)	1	-1	-2.1
11	FREM1 (FRAS1 related extracellular matrix 1)	1	0	5.1
12	LOC441352	1	0	15.8
13	DAZ3 (deleted in azoospermia 3)	1	0	6.2
14	FGF3 (fibroblast growth factor 3)	1	0	-1.5
15	JCHAIN (joining chain of multimeric IgA and IgM)	1	0	1.8
16	SRM (spermidine synthase)	1	1	6.1
17	PLPP2 (phospholipid phosphatase 2)	1	1	9.4
18	TRIM74 (tripartite motif containing 74)	1	0	6.2
19	IGSF8 (immunoglobulin superfamily member 8)	1	0	-2.5
20	SPINK14 (serine peptidase inhibitor Kazal type 14 (putative))	1	1	17.3
21	LOC390411	1	1	20.1
22	DDX47 (DEAD-box helicase 47)	1	-1	-4.2
23	WNT7A (Wnt family member 7A)	1	-1	-19.3
24	RNLS (renalase, FAD dependent amine oxidase)	1	0	5.5
25	VPS29 (VPS29 retromer complex component)	1	0	12
26	LOC440355	1	0	8.8
27	HSH2D (hematopoietic SH2 domain containing)	1	0	0.7
28	LIPJ (lipase family member J)	1	-1	-11.5
29	LOC441792	1	0	6.7
30	LOC389329	1	1	22.8
31	COL1A1 (collagen type I alpha 1 chain)	1	-1	3.6
32	ZNF112 (zinc finger protein 112)	1	0	0.7
33	LAT (linker for activation of T cells)	1	0	-19.6
34	LOC400951	1	0	6
35	HAND2 (heart and neural crest derivatives expressed 2)	1	0	-6.8
36	LOC387683	1	1	14.9
37	ZNF784 (zinc finger protein 784)	1	0	-0.8
38	RANBP1 (RAN binding protein 1)	1	1	14
39	TRAPPC10 (trafficking protein particle complex subunit 10)	1	-1	-3.4
40	ABCA5 (ATP binding cassette subfamily A member 5)	1	0	-2.7
41	AHNAK (AHNAK nucleoprotein)	1	0	6.7
42	CEP89 (centrosomal protein 89)	1	0	-10.6
43	SIX4 (SIX homeobox 4)	1	0	5.4
44	KIF11 (kinesin family member 11)	1	0	22.1
45	UXS1 (UDP-glucuronate decarboxylase 1)	1	0	0.3
46	PCK1 (phosphoenolpyruvate carboxykinase 1)	1	0	-0.4

6 consecutive records from above:
no.	gene symbol	reagent no.	two-siRNA summed score (-2 to +2)	mean protection from cisplatin (shift in death) (%)
35	HAND2 (heart and neural crest derivatives expressed 2)	1	0	-6.8
36	LOC387683	1	1	14.9
37	ZNF784 (zinc finger protein 784)	1	0	-0.8
38	RANBP1 (RAN binding protein 1)	1	1	14
39	TRAPPC10 (trafficking protein particle complex subunit 10)	1	-1	-3.4
40	ABCA5 (ATP binding cassette subfamily A member 5)	1	0	-2.7

The results go on.
no.	gene symbol	reagent no.	two-siRNA summed score (-2 to +2)	mean protection from cisplatin (shift in death) (%)
47	LINC01913 (long independently transcribed non-coding RNA 1913)	1	0	3
48	LOC338661	1	0	9.4
49	BACE1 (beta-secretase 1)	1	0	-7.2
50	USP49 (ubiquitin specific peptidase 49)	1	0	11.4
51	ACSBG2 (acyl-CoA synthetase bubblegum family member 2)	1	0	6.6
52	ASH1L (ASH1 like histone lysine methyltransferase)	1	0	-17.3
53	DNM1P41 (dynamin 1 pseudogene 41)	1	2 (active)	20.8
54	WFIKKN1	1	0	0.4
55	STK17A (serine/threonine kinase 17a)	1	1	14.1
56	USF1 (upstream transcription factor 1)	1	1	-7.3
57	CASQ2 (calsequestrin 2)	1	0	2.4
58	MGC9515	1	0	9.3
59	MRPL46 (mitochondrial ribosomal protein L46)	1	1	4.3
60	RNFT2 (ring finger protein, transmembrane 2)	1	0	10.2
61	ERAS (ES cell expressed Ras)	1	0	1
62	TMOD4 (tropomodulin 4)	1	0	2.8
63	NPFF (neuropeptide FF-amide peptide precursor)	1	0	-2.8
64	CCDC136 (coiled-coil domain containing 136)	1	1	13.9
65	TPT1P4 (TPT1 pseudogene 4)	1	0	12.4
66	EDNRB (endothelin receptor type B)	1	0	4.5
67	TXNRD3 (thioredoxin reductase 3)	1	0	-4.7
68	LOC441993	1	0	13
69	TMEM134 (transmembrane protein 134)	1	0	4.8
70	PLAT (plasminogen activator, tissue type)	1	0	7.7
71	LOC440313 (protein enabled homolog)	1	0	0.2
72	LOC390636	1	1	18.3
73	METAP1D (methionyl aminopeptidase type 1D, mitochondrial)	1	1	16.9
